Assay results as given in US20210009714A1.
These are yes or no findings as the source states them, for the method shown. Some results given as binding are weak or reduced against the parent protein; the word gives no strength.

The chains behind the UniProt entries cited, without tags or fusion partners. Where a name states a change or a piece, a line headed by the entry shows the natural chain unless it says otherwise.
UniProt P31785: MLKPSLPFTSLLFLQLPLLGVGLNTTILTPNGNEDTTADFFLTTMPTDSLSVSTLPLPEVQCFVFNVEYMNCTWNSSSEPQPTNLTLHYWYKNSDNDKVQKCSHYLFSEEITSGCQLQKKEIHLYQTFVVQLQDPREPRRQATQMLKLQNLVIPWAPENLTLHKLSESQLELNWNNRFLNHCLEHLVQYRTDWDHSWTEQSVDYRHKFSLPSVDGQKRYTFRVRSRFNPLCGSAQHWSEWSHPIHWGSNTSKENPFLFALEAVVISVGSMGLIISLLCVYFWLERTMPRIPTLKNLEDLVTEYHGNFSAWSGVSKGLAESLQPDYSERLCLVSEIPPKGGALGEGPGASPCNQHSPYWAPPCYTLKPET

Target: Protein G/hFcγRI chimeric protein (Streptococcus strain G148; human)
Test: flow cytometry on RGC19 cells, rabbit IgG block, FITC anti-human IgG F(ab')2 detection

Q: Which binding does the source give for “4SC622 (from UniProt P31785 23-262; P24394 26-232; P01857 104-330) (Fc fusion)” here?
A: binds
